Two substances from patent publication US8038984B2 (Washington University, priority 1998, dated 2011) can be followed below.

The series is described as follows: general procedure: Fmoc solid-phase peptide synthesis; BOP/HOBt. The following applies: whole synthesis, trifluoroacetate.

Bounds are passed on as bounds.

On to Acetyl- GRKKRRQRRR-AHA- εKGC-amide, for which the “final HPLC purity” value is listed as more than 94%.

For the substance acetyl-GRKKRRQRRR-GDEVDG-εKGC-amide, the “final HPLC purity” value is given as more than 94%.
